The exact form of at least one protein or probe is not confirmed. For part of these data: A negative result means that nothing was seen under these conditions. For part of these data: The comparison behind a weaker result is the experiment's own reference, which may not be listed here. For part of these data: At least one verdict rests on a figure or table, not on a statement of the authors.
Columns and labels:
[1] = molecular target: Hfq K56A (proximal face) (Escherichia coli) (UniProt P0A6X3); test: filter binding
[2] = molecular target: Hfq wt (Escherichia coli) (UniProt P0A6X3); test: filter binding
[3] = molecular target: Hfq wt (Escherichia coli) (UniProt P0A6X3); test: competition with a labelled probe; conditions: did not displace 32P-A27 (distal face only, GcvB binds Hfq otherwise)
[4] = molecular target: Hfq Y25D (distal face) (Escherichia coli) (UniProt P0A6X3); test: filter binding; conditions: markedly impaired vs wt Hfq

GGCCCGGAUGGUGGAAUCGGUAGACACAAGGGAUUUAAAAUCCCUCGGCGUUCGCGCUGUGCGGGUUCAAGUCCCGCUCCGGGUACCAUGGGAAAGAUAAGAAUAAAAUCAAAGCAAUAAGCAGUGUCGUGAAACCACCUUCGGGUGGUUUUUUU [3'ETSleuZ]
binding result ([1]; significantly weaker than wt): binds more weakly

UUUUUUUUUUUUUUUUUU [U18]
binding result ([2]; labeled proximal-face probe in competition): binds

AAAAAAAAAAAAAAAAAAAAAAAAAAA [A27]
binding result ([2]; labeled distal-face probe in competition): binds

GACUUCCUGAGCCGGAACGAAAAGUUUUAUCGGAAUGCGUGUUCUGGUGAACUUUUGGCUUACGGUUGUGAUGUUGUGUUGUUGUGUUUGCAAUUGGUCUGCGAUUCAGACCAUGGUAGCAAAGCUACCUUUUUUCACUUCCUGUACAUUUACCCUGUCUGUCCAUAGUGAUUAAUGUAGCACCGCCUAAUUGCGGUGCUUUUUUU [GcvB]
binding result [3]: no binding | binding result ([1]; mutation detrimental for binding): binds more weakly

GGCCCGGAUGGUGGAAUCGGUAGACACAAGGGAUUUAAAAUCCCUCGGCGUUCGCGCUGUGCGGGUUCAAGUCCCGCUCCGGGUACCAUGGGAAAGAUAAGAAUAAAAUCAAAGCAAUAAGCAGUGUCGUGAAACCACCUUCGGGUGGUUUU [3'ETSleuZ-U4]
binding result [4]: binds more weakly

Reference: doi:10.1101/2021.04.25.441314
